Laboratory results reported in article PMC6055584.
These are yes or no findings as the source states them, for the method shown. For some assays here: Binding calls can cover weak binding; strength is not graded here. For some assays here: Tags and fused reporters may be left off the sequences shown. For some assays here: Binding seen in cells or lysates may run through a third protein.

T1: Days To Heading on chromosome 8 (DTH8), yeast two-hybrid fusion (rice (Oryza sativa)) (UniProt Q0J7P4)
T1 sequence: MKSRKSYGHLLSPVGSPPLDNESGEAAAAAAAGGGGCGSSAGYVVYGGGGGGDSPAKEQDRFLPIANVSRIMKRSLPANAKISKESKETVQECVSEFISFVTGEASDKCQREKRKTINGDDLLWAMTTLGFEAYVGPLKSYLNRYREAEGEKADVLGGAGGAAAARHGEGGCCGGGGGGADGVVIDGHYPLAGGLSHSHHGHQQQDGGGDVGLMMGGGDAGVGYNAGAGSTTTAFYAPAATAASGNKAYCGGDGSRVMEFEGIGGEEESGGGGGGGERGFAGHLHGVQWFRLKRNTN

T2: GST-tagged DTH8 (rice (Oryza sativa)) (UniProt Q0J7P4)
T2 sequence: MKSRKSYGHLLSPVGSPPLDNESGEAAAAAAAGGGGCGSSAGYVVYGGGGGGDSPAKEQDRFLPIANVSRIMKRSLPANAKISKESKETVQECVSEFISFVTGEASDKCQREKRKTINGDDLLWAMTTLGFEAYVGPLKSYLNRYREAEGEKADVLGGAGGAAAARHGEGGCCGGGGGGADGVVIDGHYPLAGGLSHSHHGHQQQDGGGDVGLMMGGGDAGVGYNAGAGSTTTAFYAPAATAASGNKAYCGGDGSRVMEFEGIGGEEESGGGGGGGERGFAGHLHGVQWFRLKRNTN

B1: DTH8-Ghd8-OsHAP3H residues 3-125 (library prey clone) (domain or fragment, UniProt Q0J7P4 3-125)
chain: SRKSYGHLLSPVGSPPLDNESGEAAAAAAAGGGGCGSSAGYVVYGGGGGGDSPAKEQDRFLPIANVSRIMKRSLPANAKISKESKETVQECVSEFISFVTGEASDKCQREKRKTINGDDLLWA
B2: HAP3A (protein, UniProt Q5QMG3 1-178)
chain: MMMMDLGFLEGGAGMADAGHDESGSPPRSGGVREQDRFLPIANISRIMKKAVPANGKIAKDAKETLQECVSEFISFVTSEASDKCQKEKRKTINGEDLLFAMGTLGFEEYVDPLKIYLHKYREVIGDSKLSSKAGDGSVKKDTIGPHSGASSSSAQGMVGAYTQGMGYMQPQYHNGDT
B3: Days To Heading on chromosome 8 (DTH8), yeast two-hybrid fusion (protein, UniProt Q0J7P4 1-297)
chain: MKSRKSYGHLLSPVGSPPLDNESGEAAAAAAAGGGGCGSSAGYVVYGGGGGGDSPAKEQDRFLPIANVSRIMKRSLPANAKISKESKETVQECVSEFISFVTGEASDKCQREKRKTINGDDLLWAMTTLGFEAYVGPLKSYLNRYREAEGEKADVLGGAGGAAAARHGEGGCCGGGGGGADGVVIDGHYPLAGGLSHSHHGHQQQDGGGDVGLMMGGGDAGVGYNAGAGSTTTAFYAPAATAASGNKAYCGGDGSRVMEFEGIGGEEESGGGGGGGERGFAGHLHGVQWFRLKRNTN
B4: HAP3B (protein, UniProt Q60EQ4 1-185)
chain: MADGPGSPGGGGGSHESGSPRGGGGGGGGGGGGGGVREQDRFLPIANISRIMKKAIPANGKIAKDAKETVQECVSEFISFITSEASDKCQREKRKTINGDDLLWAMATLGFEDYIEPLKVYLQKYREMEGDSKLTAKAGDGSVKKDVLGSHGGSSSSAQGMGQQAAYNQGMGYMQPQYHNGDVSN
B5: pSPYNE173-DTH8 (BiFC fusion) (protein, UniProt Q0J7P4 1-297)
chain: MKSRKSYGHLLSPVGSPPLDNESGEAAAAAAAGGGGCGSSAGYVVYGGGGGGDSPAKEQDRFLPIANVSRIMKRSLPANAKISKESKETVQECVSEFISFVTGEASDKCQREKRKTINGDDLLWAMTTLGFEAYVGPLKSYLNRYREAEGEKADVLGGAGGAAAARHGEGGCCGGGGGGADGVVIDGHYPLAGGLSHSHHGHQQQDGGGDVGLMMGGGDAGVGYNAGAGSTTTAFYAPAATAASGNKAYCGGDGSRVMEFEGIGGEEESGGGGGGGERGFAGHLHGVQWFRLKRNTN
B6: TFIIB (protein, UniProt Q8W0W3 1-312)
chain: MSDSFCPDCKKHTEVAFDHSAGDTVCTECGLVLEAHSVDETSEWRTFANESSDNDPVRVGGPTNPLLTDGGLSTVIAKPNGAQGEFLSSSLGRWQNRGSNPDRSLILAFRTIANMADRLGLVATIKDRANEIYKKVEDLKSIRGRNQDAILAACLYIACRQEDRPRTVKEICSVANGATKKEIGRAKEFIVKQLEVEMGQSMEMGTIHAGDFLRRFCSTLGMNNQAVKAAQEAVQRSEELDIRRSPISIAAAVIYMITQLSDDKKPLKDISLATGVAEGTIRNSYKDLYPYASRLIPNTYAKEEDLKNLCTP

Tests used:
[1] = biological target: T1, Days To Heading on chromosome 8 (DTH8), yeast two-hybrid fusion (rice (Oryza sativa)); assay: two-hybrid; pairwise; pGBKT7 baits and pGADT7 preys co-transformed into S. cerevisiae AH109; growth on Synthetic Dropout/-Trp-Leu-His-Ade at 30°C
[2] = biological target: T2, GST-tagged DTH8 (rice (Oryza sativa)); assay: pull-down; GST pull-down; E. coli BL21 lysates of the two proteins mixed in 25 mM Tris-HCl pH 7.5, 150 mM NaCl, 1 mM DTT, glutathione agarose beads overnight at 4°C; washes with 1% Triton X100 and 0.1% SDS; blots with anti-GST and anti-MBP
[3] = biological target: Heme Activator Protein like 1 (OsHAPL1), yeast two-hybrid fusion (rice (Oryza sativa)); assay: two-hybrid; library screen in yeast strain AH109; bait pGBKT7-OsHAPL1 (GAL4 DNA binding domain fusion), prey a rice GAL4 activation fusion library
[4] = biological target: Heme Activator Protein like 1 (OsHAPL1), yeast two-hybrid fusion (rice (Oryza sativa)); assay: two-hybrid; pairwise; pGBKT7 baits and pGADT7 preys co-transformed into S. cerevisiae AH109; growth on Synthetic Dropout/-Trp-Leu-His-Ade at 30°C
[5] = biological target: Hd1(ΔCCT) fused with the GAL4 DNA binding domain (rice (Oryza sativa)); assay: as above
[6] = biological target: OsHAPL1-H (OsHAPL1 with the HAP domain only) (rice (Oryza sativa)); assay: as above
[7] = biological target: OsHAPL1-ΔH (OsHAPL1 with the HAP domain deleted) (rice (Oryza sativa)); assay: as above
[8] = biological target: pSPYCE(M)-OsHAPL1 (BiFC fusion) (rice (Oryza sativa)); assay: split reporter; BiFC; YFPC (pSPYCE(M)) and YFPN (pSPYNE173) fusions, Agrobacterium GV3101 infiltration of N. benthamiana leaves, imaged 3 days after infiltration
[9] = biological target: Heading date 1 (Hd1), yeast two-hybrid fusion (rice (Oryza sativa)); assay: two-hybrid; pairwise; pGBKT7 baits and pGADT7 preys co-transformed into S. cerevisiae AH109; growth on Synthetic Dropout/-Trp-Leu-His-Ade at 30°C

| Molecule | binding [1] | other results |
| --- | --- | --- |
| HAP2B (rice (Oryza sativa)) | binds |  |
| HAP2E (rice (Oryza sativa)) | binds |  |
| HAP2G (rice (Oryza sativa)) | binds |  |
| HAP2H (rice (Oryza sativa)) | binds |  |
| HAP2I (rice (Oryza sativa)) | binds |  |
| HAP2J (rice (Oryza sativa)) | binds |  |
| HAP3D (rice (Oryza sativa)) | binds |  |
| HAP3E (rice (Oryza sativa)) | binds |  |
| HAP3F (rice (Oryza sativa)) | binds |  |
| HAP3J (rice (Oryza sativa)) | binds |  |
| HAP3K (rice (Oryza sativa)) | binds |  |
| HAP5A (rice (Oryza sativa)) | binds |  |
| HAP5B (rice (Oryza sativa)) | binds |  |
| HAP5D (rice (Oryza sativa)) | binds |  |
| HAP5G (rice (Oryza sativa)) | binds |  |
| Heading date 1 (Hd1), yeast two-hybrid fusion (rice (Oryza sativa)) | binds |  |
| MBP-tagged OsHAPL1 (rice (Oryza sativa)) |  | binding [2]: binds |
| TATA-Binding Protein (TBP) | no binding |  |
| B1 |  | binding [3]: binds |
| B2 |  | binding [4]: binds; binding [5]: binds |
| B3 |  | binding [4]: binds; binding [5]: binds; binding [6]: binds; binding [7]: no binding |
| B4 |  | binding [5]: binds |
| B5 |  | binding [8]: binds |
| B6 |  | binding [4]: no binding; binding [9]: no binding |
